# Primary screen of a compound library

The chains behind the UniProt entries cited, without tags or fusion partners. Residues count along the entry.
UniProt Q8IDJ8, 1-583: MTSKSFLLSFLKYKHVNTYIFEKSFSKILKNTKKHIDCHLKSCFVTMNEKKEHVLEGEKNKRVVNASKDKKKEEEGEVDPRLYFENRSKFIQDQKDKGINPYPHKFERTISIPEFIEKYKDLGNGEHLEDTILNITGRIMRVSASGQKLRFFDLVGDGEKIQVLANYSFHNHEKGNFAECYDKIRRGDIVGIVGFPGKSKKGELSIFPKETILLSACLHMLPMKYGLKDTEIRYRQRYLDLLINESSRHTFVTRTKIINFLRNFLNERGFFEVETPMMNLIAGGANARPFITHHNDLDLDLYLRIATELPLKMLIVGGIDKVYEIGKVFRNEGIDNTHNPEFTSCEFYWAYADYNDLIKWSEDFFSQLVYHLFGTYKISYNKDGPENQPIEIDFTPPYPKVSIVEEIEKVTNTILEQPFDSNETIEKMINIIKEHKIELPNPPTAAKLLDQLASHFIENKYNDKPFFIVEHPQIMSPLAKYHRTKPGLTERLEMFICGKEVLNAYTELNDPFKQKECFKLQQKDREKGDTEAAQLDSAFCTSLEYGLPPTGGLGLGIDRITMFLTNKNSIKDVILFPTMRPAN

Data taken from ChEMBL document CHEMBL3988442, “University of Dundee, Small-Polar-MMV Screening Library” (2021).

Values are the deposited “Percent Effect”, in %. How 0% and 100% were set is not recorded. Most values in the screen are low, and negative values occur. This is an unselected part of the compounds tested.

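Lysine-tRNA ligase, Plasmodium falciparum 3D7 (UniProt Q8IDJ8). Enzyme assay of the cytosolic lysyl-tRNA synthetase in 384-well plates, read by luminescence. Compounds at 30 µM. Direction is inferred from only a few compounds that gave an IC50; most scored high, so higher reads as stronger inhibition. Of about 69,000 compounds tested this way, about 49 (0.071%) reached 50% or more in at least one test.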

For CS(=O)(=O)N1CCCC12CCCN(C(=O)c1ccc3[nH]ccc3c1)C2 (configuration not stated) the result was 4.55%. Cc1c(Cl)cccc1NC(=O)c1nc[nH]n1 read -2.848%. With O=C(C1CNCCN1C(=O)CCOc1ccccc1)N1CCOCC1 (configuration not stated) the screen gave 5.859%. With COc1ccc2cc(C(=O)N3CCCCC3Cn3cccn3)[nH]c2c1 (configuration not stated) the screen gave 1.588%. With CCc1nc(C)c(C(=O)N2CCCC(c3noc(C)n3)C2)s1 (configuration not stated) the screen gave 2.093%. Result for COc1ccnc(N2CCN(C(=O)NCc3ccc(C)s3)CC2)n1 was 6.478%. Cc1cc(C2CCCN2Cc2nc(-c3ccco3)no2)on1 (configuration not stated) read 4.044%. O=C(Cc1ccc(F)cc1)NCc1ccc(C(=O)O)o1 read 6.041%.

For CC(=O)NCCc1ccc(S(=O)(=O)Nc2ccc(C)cc2F)s1 the result was 5.096%. CC(C(=O)Nc1ccc(N2CCCC2)nc1)n1cccn1 (configuration not stated) read 0.6605%. For CCc1nnc2n1CCN(C(=O)c1ccc(-c3ccco3)[nH]c1=O)C2 the result was 1.368%. CN(C)C(=O)CN1CCC2(CC1)CN(S(C)(=O)=O)Cc1ccccc1O2 gave -0.9959%. Result for Cc1nc(CN2CCC3(CCCO3)CC2)c2ccccn12 was 17.49%. c1cncc(OC[C@]23COC[C@H]2CN(Cc2ccsc2)C3)c1 read 1.164%. Cc1nn(C)c(N(C)C)c1CNCc1ccc(C(=O)N(C)C)cc1 read -0.1742%. CCS(=O)(=O)N(C)CCCNCc1c(C)nn(C)c1N(C)C gave -0.08701%.

Result for Cc1cnc(N2CCCC3(COCCN(c4nccs4)C3)C2)nc1 (configuration not stated) was 6.628%. Result for CNC(=O)c1cn2cc(-c3cccc(Cl)c3)n(CC3CC3)c(=O)c2n1 was 4.532%. Cc1ccoc1-c1nnc(CNCC2CCCN2c2cccnn2)o1 (configuration not stated) read 4.631%. CC(C)CNC(=O)Cc1cnc(-n2cccc2)s1 read 3.753%. For CCS(=O)(=O)Nc1ccn(Cc2c(F)cccc2Cl)n1 the result was 0.4473%. For Cn1ncc2c1CCCC2NCc1cccnc1 (configuration not stated) the result was 2.385%. CC1(C2CCN(CC(N)=O)CC2)CN(Cc2ccccc2)C(=O)O1 (configuration not stated) gave -0.2431%. Cc1nn(CC(=O)N2CCN(c3ccc(F)cc3)CC2)c(C)c1Cl gave -0.9795%.

With CSc1ccc2cc(CN(C)CCO)c(=O)[nH]c2c1 the screen gave 8%. For CC(C(=O)N1CCN(c2ccc(F)cc2)CC1)n1ccnc1 (configuration not stated) the result was 8.667%. Cc1[nH]c2c(F)cccc2c1CC(=O)NCCCNc1cccnc1 gave 1.342%. c1cnn(-c2ccc(CN3CCCC(Cn4cncn4)C3)cc2)c1 (configuration not stated) gave -0.8287%. Result for Cc1cc(S(=O)(=O)N2CCCN3CCCC3C2)ccc1F (configuration not stated) was 4.383%. c1ccc(-c2nc3c(c(NCCc4c[nH]cn4)n2)CCNC3)cc1 gave 4.182%. For CC(C)c1cc(C(=O)N2CCCC2c2nc(-c3ccccc3)no2)[nH]n1 (configuration not stated) the result was 0.6333%. With CC(N)C(=O)N1CCC(Oc2cccc(C(F)(F)F)c2)CC1 (configuration not stated) the screen gave 1.84%.

Result for CCOCCN1CCN(Cc2nnc(-c3occc3C)o2)CC1 was -2.454%. Result for O=C(NCC(O)c1ccsc1)c1sccc1OC(F)F (configuration not stated) was 0%. Cc1ccc2c(c1)C(=O)CC1(CCN(Cc3ccccc3)CC1)O2 gave 1.761%. For CN1CCN(c2ccc(F)cc2NC(=O)NCC[S+](C)[O-])CC1 (configuration not stated) the result was 8.043%. With N#Cc1ccccc1CN1CCC(CN2CCOCC2)C1 (configuration not stated) the screen gave 1.972%.

Repeated from the top, 4 entries:

| Compound | percent effect |
|---|---|
| `CS(=O)(=O)N1CCCC12CCCN(C(=O)c1ccc3[nH]ccc3c1)C2` (configuration not stated) | 4.55% |
| `Cc1c(Cl)cccc1NC(=O)c1nc[nH]n1` | -2.848% |
| `O=C(C1CNCCN1C(=O)CCOc1ccccc1)N1CCOCC1` (configuration not stated) | 5.859% |
| `COc1ccc2cc(C(=O)N3CCCCC3Cn3cccn3)[nH]c2c1` (configuration not stated) | 1.588% |